Measurements reported in patent publication US10821177B2, “Induction of differential stress resistance and uses thereof” (University of Southern California, priority 2007, dated 2020).
At least one structure is not confirmed: it was looked up by name or label, or the drawing left a doubt.

Tested on: cortical neurons from E18 rat embryos
Conditions: pre-treatment with inhibitor
Procedure: FIG. 23. […] Cortical neurons from E18 rat embryos were cultured onto 96-well plates (A) or glass coverslips in 6-well plates (B). On 10-14 DIV, the neurons were pre-treated with MEK1/ERK1/2 inhibitors U0126 or SL327. Oxidative stress was induced by hydrogen peroxide or menadione. Cell viability was measured with MTT survival assay (A) or live/dead assay (B). C) % death was calculated from the number of dead (red) and live (green) cells.

N#C/C(=C(/N)Sc1ccc(N)cc1)c1ccccc1C(F)(F)F [SL327]
resistance of neurons to oxidative stress (hydrogen peroxide or menadione): protects neurons against oxidative stress
